Values from PubChem BioAssay AID1224830 (NIAID, 2016).
This is an unselected part of about 18,000 reagents. About 2,900 of all reagents (16%) were called active. 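Calls are made per well; low scores hint the gene aids the LPS response, high scores that it dampens it.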 A number with no mark means an inactive call. Repeated entries: four replicate wells of each siRNA pool. Reagent sequences are not shown.

Purpose: 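Regulators of TLR4 signalling towards TNF-alpha in macrophage-like cells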 (primary screen)
Cell system: human THP-1 monocytic leukaemia cells, TNF dual-luciferase reporter clone, PMA-differentiated to macrophage-like cells
Reagents: siRNA pool against human genes, 50 nM
Duration: LPS for 4 h, given about 3 days after siRNA transfection
Treatment: bacterial LPS (TLR4 ligand), 10 ng/ml
Measurement: 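TNF firefly reporter luminescence divided by renilla, normalised to the plate median, then turned into a robust z-score for each replicate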
Scale: TNF reporter robust z-score: higher = stronger TNF reporter response to LPS
Hit rule: 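Each well counts as active if its z-score is over 2.8 or under -1.5; controls are left without a call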

| gene knocked down | TNF reporter robust z-score |
| --- | --- |
| H2AX | -0.03 |
| H2AX | 0.9 |
| H2AX | 0.46 |
| H2AX | 1.2 |
| ADAMTSL5 | 2.05 |
| ADAMTSL5 | 1.2 |
| ADAMTSL5 | 0.94 |
| ADAMTSL5 | 0.66 |
| OR5AC2 | -0.38 |
| OR5AC2 | 0.62 |
| OR5AC2 | 0.76 |
| OR5AC2 | 0.09 |
| ASIC3 | -0.3 |
| ASIC3 | -0.35 |
| ASIC3 | -0.52 |
| ASIC3 | -0.13 |
| LRRC8E | 1.09 |
| LRRC8E | 1.29 |
| LRRC8E | 0.31 |
| LRRC8E | 0.46 |
| SMPD3 | -0.03 |
| SMPD3 | 0.43 |
| SMPD3 | 0.41 |
| SMPD3 | 1.01 |
| NT5DC2 | -0.93 |
| NT5DC2 | -0.8 |
| NT5DC2 | 0.25 |
| NT5DC2 | -0.1 |
| STON1 | -1.15 |
| STON1 | -0.31 |
| STON1 | 1.5 |
| STON1 | 1.27 |
| HYAL1 | -0.91 |
| HYAL1 | -0.86 |
| HYAL1 | -1 |
| HYAL1 | -0.09 |
| ZNF382 | 0.08 |
| ZNF382 | -0.41 |
| ZNF382 | -0.74 |
| ZNF382 | -0.89 |
| FAM241A | -1.18 |
| FAM241A | -1.22 |
| FAM241A | -1.91 (active) |
| FAM241A | -1.68 (active) |
| WDR20 | -0.28 |
| WDR20 | 0.28 |
| WDR20 | -1.15 |
| WDR20 | -0.75 |
